Measurements from the supplement of paper PMC6078165.

Test system: MDAMB436
Assay: relative JC-1 red fluorescence (viability) vs pre-drug, coculture with fibroblast (fraction); higher = more viable cancer cells
Description: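 JC-1 labelled TNBC cells cocultured 1:1 (1,500 cells each) with CellTrace Violet stained primary or stromal fibroblasts in 384-well plates in FluoroBrite medium, treated with one of 42 anticancer drugs at 0.1, 1, 10 or 100 uM. JC-1 red fluorescence (mitochondrial integrity in cancer cells only) was read by plate reader every 8 h for 72 h. Values are normalised to each well's pre-drug value. The stock of one drug was tenfold lower, so its dose labels may be too high.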

CC(C)(C#N)c1cc(Cn2cncn2)cc(C(C)(C)C#N)c1 [Anastrozole]
relative JC-1 red fluorescence
Conditions | 8 h | 16 h | 24 h | 32 h | 40 h | 48 h | 56 h | 64 h | 72 h
10 µM, coculture fibroblast: C12385 | 0.8274 | 0.696 | 0.668 | 0.579 | 0.527 | 0.491 | 0.47 | 0.44 | 0.428
10 µM, coculture fibroblast: H6013 | 0.838 | 0.74 | 0.742 | 0.735 | 0.721 | 0.755 | 0.721 | 0.71 | 0.6691
10 µM, coculture fibroblast: H6019 | 0.742 | 0.6892 | 0.6508 | 0.564 | 0.51 | 0.484 | 0.443 | 0.409 | 0.382
10 µM, coculture fibroblast: H6076 | 0.665 | 0.594 | 0.588 | 0.558 | 0.546 | 0.531 | 0.543 | 0.534 | 0.529
10 µM, coculture fibroblast: H6231 | 0.728 | 0.64 | 0.596 | 0.527 | 0.506 | 0.475 | 0.46 | 0.436 | 0.422
10 µM, coculture fibroblast: HADF | 0.865 | 0.78 | 0.781 | 0.755 | 0.743 | 0.766 | 0.704 | 0.691 | 0.6466
10 µM, coculture fibroblast: HCFa | 0.798 | 0.75 | 0.732 | 0.706 | 0.681 | 0.707 | 0.641 | 0.632 | 0.58
10 µM, coculture fibroblast: HCPF | 0.757 | 0.618 | 0.5962 | 0.51916 | 0.485 | 0.4478 | 0.41826 | 0.395 | 0.387
10 µM, coculture fibroblast: HHSteC | 0.828 | 0.771 | 0.753 | 0.719 | 0.704 | 0.726 | 0.657 | 0.637 | 0.589
10 µM, coculture fibroblast: HMF | 0.748 | 0.628 | 0.586 | 0.533 | 0.512 | 0.471 | 0.46 | 0.443 | 0.443
10 µM, coculture fibroblast: HPFa | 0.882 | 0.816 | 0.794 | 0.767 | 0.743 | 0.753 | 0.663 | 0.634 | 0.558
10 µM, coculture fibroblast: HUF | 0.844 | 0.72 | 0.683 | 0.601 | 0.545 | 0.512 | 0.4888 | 0.4685 | 0.454
10 µM, coculture fibroblast: Hs5 | 0.677 | 0.625 | 0.6178 | 0.5605 | 0.551 | 0.503 | 0.514 | 0.48 | 0.465
10 µM, coculture fibroblast: Hs27A | 0.862 | 0.799 | 0.789 | 0.781 | 0.747 | 0.811 | 0.705 | 0.69 | 0.602
10 µM, coculture fibroblast: Hs343T | 0.699 | 0.615 | 0.57 | 0.513 | 0.478 | 0.438 | 0.42 | 0.407 | 0.4
10 µM, coculture fibroblast: WS1 | 0.803 | 0.696 | 0.665 | 0.58 | 0.542 | 0.512 | 0.476 | 0.433 | 0.413
100 µM, coculture fibroblast: C12385 | 0.835 | 0.744 | 0.754 | 0.685 | 0.653 | 0.631 | 0.605 | 0.585 | 0.577
100 µM, coculture fibroblast: H6013 | 0.8765 | 0.797 | 0.809 | 0.81 | 0.793 | 0.815 | 0.773 | 0.753 | 0.705
100 µM, coculture fibroblast: H6019 | 0.791 | 0.716 | 0.7137 | 0.659 | 0.6353 | 0.62402 | 0.5849 | 0.551 | 0.52
100 µM, coculture fibroblast: H6076 | 0.788 | 0.6729 | 0.6312 | 0.595 | 0.5727 | 0.547 | 0.54 | 0.536 | 0.529
100 µM, coculture fibroblast: H6231 | 0.8 | 0.706 | 0.663 | 0.626 | 0.587 | 0.545 | 0.53 | 0.513 | 0.491
100 µM, coculture fibroblast: HADF | 0.853 | 0.792 | 0.786 | 0.758 | 0.729 | 0.733 | 0.6686 | 0.6501 | 0.6025
100 µM, coculture fibroblast: HCFa | 0.84 | 0.781 | 0.775 | 0.748 | 0.715 | 0.724 | 0.649 | 0.631 | 0.581
100 µM, coculture fibroblast: HCPF | 0.789 | 0.724 | 0.627 | 0.612 | 0.581 | 0.542 | 0.512 | 0.494 | 0.471
100 µM, coculture fibroblast: HHSteC | 0.8824 | 0.828 | 0.801 | 0.777 | 0.762 | 0.772 | 0.708 | 0.681 | 0.627
100 µM, coculture fibroblast: HMF | 0.8042 | 0.717 | 0.613 | 0.6013 | 0.5659 | 0.534 | 0.515 | 0.498 | 0.482
100 µM, coculture fibroblast: HPFa | 0.935 | 0.876 | 0.848 | 0.801 | 0.769 | 0.757 | 0.671 | 0.618 | 0.537
100 µM, coculture fibroblast: HUF | 0.8744 | 0.7869 | 0.753 | 0.688 | 0.632 | 0.5965 | 0.5545 | 0.5257 | 0.512
100 µM, coculture fibroblast: Hs5 | 0.84429 | 0.759 | 0.715 | 0.663 | 0.644 | 0.595 | 0.59 | 0.56 | 0.534
100 µM, coculture fibroblast: Hs27A | 0.834 | 0.78 | 0.758 | 0.735 | 0.709 | 0.736 | 0.652 | 0.622 | 0.546
100 µM, coculture fibroblast: Hs343T | 0.806 | 0.708 | 0.627 | 0.623 | 0.582 | 0.556 | 0.535 | 0.522 | 0.517
100 µM, coculture fibroblast: WS1 | 0.832 | 0.739 | 0.74 | 0.679 | 0.632 | 0.624 | 0.599 | 0.567 | 0.548

The reference is the same well before dosing, and untreated signal decays as well.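 Fibroblast labels denote human fibroblasts, mainly primary ones from uterus (C12385, HUF), lung (H6013), bone (Hs27A), adrenal (HADF) and skin (WS1), plus mammary HMF and breast cancer-associated Hs343T. Cancer cells are basal-like or mesenchymal-like triple-negative breast cancer lines. A hit is a response shift exceeding 3x replicate standard deviation. The tissue of the other fibroblasts is not given here.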
